Data as given in PubChem BioAssay AID1259303 (Sanger Institute, 2017).
Screen: 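Which silenced kinases add to BYL719, cetuximab or trametinib effects in colorectal cancer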 (follow-up of hits). Cell system: human COLO320HSR colorectal cancer cells. Knock-down reagent: single siRNA against human genes. Challenge: anchor drug BYL719 (1 µM), cetuximab (5 µg/ml) or trametinib (10 nM), or DMSO vehicle alone. Detection: 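Replicate-averaged viability relative to non-targeting pool 2 siRNA under DMSO; synergy scores against each drug alone for BYL719 1 µM, cetuximab 5 µg/ml or trametinib 10 nM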. Reading the numbers: synergy score with BYL719: higher = stronger combined killing with BYL719; synergy score with cetuximab: higher = stronger combined killing with cetuximab; synergy score with trametinib: higher = stronger combined killing with trametinib; viability, siRNA alone (DMSO): higher = more viable cells. Active means: 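a knock-down counts as active when any of the three drug synergy scores exceeds 0.10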. Calls: active = synergy with at least one drug; inactive = no synergy found.
The whole screen tested 160 reagents; this is a random part of them. Of all reagents, 11 (6.9%) got an active call. 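Viability capped at 1; how the synergy score is calculated is not stated; four separate siRNAs target each gene.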 Reagents against one gene are numbered here. Reagent sequences are not shown. Not given: the amount of reagent, the time to read-out.

gene | siRNA no. | synergy score with BYL719 | synergy score with cetuximab | synergy score with trametinib | viability, siRNA alone (DMSO) (fraction of control) | activity call
CSNK2A2 (casein kinase 2 alpha 2) | 1 | -0.103 | -0.0349 | -0.0349 | 0.965 | inactive
CSNK2A2 (casein kinase 2 alpha 2) | 2 | -0.204 | -0.0782 | -0.167 | 0.393 | inactive
CSNK2A2 (casein kinase 2 alpha 2) | 3 | -0.226 | -0.125 | -0.126 | 0.874 | inactive
CSNK2A2 (casein kinase 2 alpha 2) | 4 | -0.199 | -0.0184 | -0.137 | 0.61 | inactive
HSPB8 (heat shock protein family B (small) member 8) | 1 | -0.0632 | -0.0184 | -0.0402 | 0.96 | inactive
HSPB8 (heat shock protein family B (small) member 8) | 2 | -0.37 | -0.0446 | -0.0962 | 0.904 | inactive
HSPB8 (heat shock protein family B (small) member 8) | 3 | -0.155 | -0.0319 | -0.0319 | 0.968 | inactive
HSPB8 (heat shock protein family B (small) member 8) | 4 | 0.00867 | 0.134 | 0.0564 | 0.899 | active
ACVR1 (activin A receptor type 1) | 1 | -0.0438 | 0.0038 | 0 | 1 | inactive
ACVR1 (activin A receptor type 1) | 2 | -0.0835 | 0 | 0 | 1 | inactive
ACVR1 (activin A receptor type 1) | 3 | -0.179 | 0 | 0 | 1 | inactive
ACVR1 (activin A receptor type 1) | 4 | -0.245 | -0.15 | -0.228 | 0.656 | inactive
EPHA6 (EPH receptor A6) | 1 | 0.0425 | -0.171 | -0.253 | 0.657 | inactive
EPHA6 (EPH receptor A6) | 2 | 0.114 | -0.0263 | -0.0497 | 0.95 | active
EPHA6 (EPH receptor A6) | 3 | -0.0648 | -0.107 | -0.195 | 0.666 | inactive
EPHA6 (EPH receptor A6) | 4 | 0.0866 | 0 | 0.112 | 1 | active
NLK (nemo like kinase) | 1 | -0.095 | 0 | 0 | 1 | inactive
NLK (nemo like kinase) | 2 | -0.00593 | 0.0097 | -0.0561 | 0.939 | inactive
NLK (nemo like kinase) | 3 | -0.303 | 0 | 0 | 1 | inactive
NLK (nemo like kinase) | 4 | -0.046 | 0 | 0 | 1 | inactive
IRAK1 (interleukin 1 receptor associated kinase 1) | 1 | -0.0399 | -0.0941 | 0.245 | 0.892 | active
IRAK1 (interleukin 1 receptor associated kinase 1) | 2 | -0.113 | -0.0934 | -0.121 | 0.879 | inactive
IRAK1 (interleukin 1 receptor associated kinase 1) | 3 | 0.0545 | -0.025 | 0.18 | 0.975 | active
IRAK1 (interleukin 1 receptor associated kinase 1) | 4 | -0.0496 | -0.055 | -0.119 | 0.881 | inactive

Not a retest: 3 of the entries above.
gene | siRNA no. | synergy score with BYL719 | synergy score with cetuximab | synergy score with trametinib | viability, siRNA alone (DMSO) (fraction of control) | activity call
ACVR1 (activin A receptor type 1) | 4 | -0.245 | -0.15 | -0.228 | 0.656 | inactive
EPHA6 (EPH receptor A6) | 1 | 0.0425 | -0.171 | -0.253 | 0.657 | inactive
EPHA6 (EPH receptor A6) | 2 | 0.114 | -0.0263 | -0.0497 | 0.95 | active
